Source: PMC5253658
No constants are given. Whether binding was seen depends on the method and setting. In cells and extracts the contact can be indirect. A yes stands for co-enrichment or nearness to the bait. Other partners may have been found.

The chains behind the UniProt entries cited, without tags or fusion partners. Residues count along the entry.
UniProt Q3UU41, residues 29-150: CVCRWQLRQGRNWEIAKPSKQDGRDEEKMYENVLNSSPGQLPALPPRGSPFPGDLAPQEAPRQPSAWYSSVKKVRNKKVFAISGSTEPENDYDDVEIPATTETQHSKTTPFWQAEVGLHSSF
UniProt P25911: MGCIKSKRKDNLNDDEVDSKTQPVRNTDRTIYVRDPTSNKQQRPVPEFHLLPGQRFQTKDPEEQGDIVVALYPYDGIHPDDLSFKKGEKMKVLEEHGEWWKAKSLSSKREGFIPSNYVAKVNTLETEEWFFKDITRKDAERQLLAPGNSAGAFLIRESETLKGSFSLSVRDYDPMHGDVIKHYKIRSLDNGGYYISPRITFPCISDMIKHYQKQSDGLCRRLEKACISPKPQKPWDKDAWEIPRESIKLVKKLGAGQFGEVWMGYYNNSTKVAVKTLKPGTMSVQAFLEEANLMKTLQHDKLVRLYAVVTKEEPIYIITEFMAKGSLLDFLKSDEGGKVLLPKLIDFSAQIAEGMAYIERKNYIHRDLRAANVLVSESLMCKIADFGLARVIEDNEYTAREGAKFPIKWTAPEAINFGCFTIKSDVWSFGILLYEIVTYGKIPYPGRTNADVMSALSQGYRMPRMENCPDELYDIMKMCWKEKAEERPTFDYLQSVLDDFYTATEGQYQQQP
UniProt Q9QUK6, residues 26-835: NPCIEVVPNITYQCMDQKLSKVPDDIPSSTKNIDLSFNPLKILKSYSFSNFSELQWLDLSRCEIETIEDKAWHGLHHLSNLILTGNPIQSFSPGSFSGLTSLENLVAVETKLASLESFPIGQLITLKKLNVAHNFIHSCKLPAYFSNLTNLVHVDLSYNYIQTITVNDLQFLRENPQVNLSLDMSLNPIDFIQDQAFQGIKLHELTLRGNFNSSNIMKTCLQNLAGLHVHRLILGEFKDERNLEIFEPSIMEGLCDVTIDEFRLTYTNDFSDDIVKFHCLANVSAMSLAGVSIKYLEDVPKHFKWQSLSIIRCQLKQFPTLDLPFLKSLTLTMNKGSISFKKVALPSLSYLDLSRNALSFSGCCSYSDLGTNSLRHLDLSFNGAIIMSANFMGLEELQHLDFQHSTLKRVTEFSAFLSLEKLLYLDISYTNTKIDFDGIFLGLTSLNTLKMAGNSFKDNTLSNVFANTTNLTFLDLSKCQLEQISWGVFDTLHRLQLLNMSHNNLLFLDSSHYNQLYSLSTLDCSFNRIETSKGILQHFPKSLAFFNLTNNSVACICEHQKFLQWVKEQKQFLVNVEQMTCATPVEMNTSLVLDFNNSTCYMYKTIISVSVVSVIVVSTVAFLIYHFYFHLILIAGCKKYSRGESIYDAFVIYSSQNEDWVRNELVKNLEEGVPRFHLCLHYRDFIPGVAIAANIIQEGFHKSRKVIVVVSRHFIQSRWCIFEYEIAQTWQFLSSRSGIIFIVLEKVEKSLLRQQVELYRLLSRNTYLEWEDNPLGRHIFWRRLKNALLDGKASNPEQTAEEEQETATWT

Molecular target: GST-SCIMP-T1 (entire intracellular region of murine SCIMP, amino acids 29-150) (mouse) (UniProt Q3UU41)
Test: affinity purification with mass spectrometry; GST-SCIMP-T1 on GSH-Sepharose; extracts of LPS-activated RAW264.7 cells; protease cleavage elution, SDS-PAGE, excised bands by LC/MS/MS; GST control; only the target purified

binding, binds:
Lyn tyrosine kinase, endogenous in mouse macrophages (from UniProt P25911 1-512) (enzyme)
endogenous TLR4 of mouse macrophages (from UniProt Q9QUK6 26-835) (receptor)
Grb2 adaptor protein, endogenous in mouse macrophages (from UniProt Q60631 1-217)
